Measurements published in article PMC11996917, “An inherited predisposition allele promotes gastric cancer via enhancing deubiquitination-mediated activation of epithelial-to-mesenchymal transition signaling”.

Molecular target: T1, GLI3 (His-tagged + probably zinc-finger fragment) (UniProt P10071)
T1 sequence (looked up, limits assumed): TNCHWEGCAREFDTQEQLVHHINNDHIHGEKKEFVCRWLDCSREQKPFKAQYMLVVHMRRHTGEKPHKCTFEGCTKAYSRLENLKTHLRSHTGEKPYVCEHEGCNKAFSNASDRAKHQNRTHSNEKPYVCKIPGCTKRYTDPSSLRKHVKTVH
Assay: EMSA
Settings: negligible shift, 5 mM MgCl2; EMSA: 20 mM Tris-HCl pH 7.5, 50 mM NaCl, 5 mM MgCl2, 0.2 mM EDTA, 1 mM DTT, 1 h at room temperature; 6% native PAGE; recombinant protein; protein details: His; label: biotin

“CCCCAAGCAGGGAGTGGCCCCTGAG (double strand) [rs72856331-A]”: binds more weakly.

Construct, isoform or probe ends are uncertain for at least one entry. Weaker means in comparison with the reference protein, sequence or condition of that experiment. Tags and fusion partners may be left off the protein sequences shown.
